1 substance from publication PMC3984256, “A PCNA-Derived Cell Permeable Peptide Selectively Inhibits Neuroblastoma Cell Growth” (PLoS ONE, 2014) can be followed below.

By UniProt entry, the sequences of proteins in these tests, tags left out.
UniProt P12004: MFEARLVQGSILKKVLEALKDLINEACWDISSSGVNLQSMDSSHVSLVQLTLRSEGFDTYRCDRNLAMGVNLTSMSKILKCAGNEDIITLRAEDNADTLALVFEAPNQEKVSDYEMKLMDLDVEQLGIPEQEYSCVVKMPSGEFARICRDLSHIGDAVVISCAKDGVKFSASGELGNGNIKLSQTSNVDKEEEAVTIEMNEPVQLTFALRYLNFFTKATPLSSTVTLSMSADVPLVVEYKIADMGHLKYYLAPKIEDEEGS

This test has as its target T1, FEN1 peptide containing the PIP-box.
T1 sequence (peptide): SKSRQGSTQGRLDDFF
In words: SPR; Biacore T100; FEN1 PIP-box peptide immobilised on a CM5 chip by carbodiimide coupling; rPCNA 250-1000 nM flowed over in the presence of 0, 500 or 1000 nM caPep; HBS-EP+ (10 mM HEPES pH 7.4, 0.15 M NaCl, 3 mM EDTA, 0.05% P20); 5 ul/min, 3 min contact; both purified.

These are yes or no findings as the source states them, for the method shown. Some binding calls cover weakened binding; strength is not graded here.

For “Recombinant PCNA (proliferating cell nuclear antigen) (from UniProt P12004 1-261)”, the binding result is “binds”.
